Experimental findings from article PMC6977694 are described below.

For experiment [1], the target named is T1, Nuclear factor-related factor 2 (Nrf2) (human (endogenous in NSCLC tissue, adjacent normal lung tissue, A549 and NCI-H1299)) (UniProt Q16236).
T1 sequence: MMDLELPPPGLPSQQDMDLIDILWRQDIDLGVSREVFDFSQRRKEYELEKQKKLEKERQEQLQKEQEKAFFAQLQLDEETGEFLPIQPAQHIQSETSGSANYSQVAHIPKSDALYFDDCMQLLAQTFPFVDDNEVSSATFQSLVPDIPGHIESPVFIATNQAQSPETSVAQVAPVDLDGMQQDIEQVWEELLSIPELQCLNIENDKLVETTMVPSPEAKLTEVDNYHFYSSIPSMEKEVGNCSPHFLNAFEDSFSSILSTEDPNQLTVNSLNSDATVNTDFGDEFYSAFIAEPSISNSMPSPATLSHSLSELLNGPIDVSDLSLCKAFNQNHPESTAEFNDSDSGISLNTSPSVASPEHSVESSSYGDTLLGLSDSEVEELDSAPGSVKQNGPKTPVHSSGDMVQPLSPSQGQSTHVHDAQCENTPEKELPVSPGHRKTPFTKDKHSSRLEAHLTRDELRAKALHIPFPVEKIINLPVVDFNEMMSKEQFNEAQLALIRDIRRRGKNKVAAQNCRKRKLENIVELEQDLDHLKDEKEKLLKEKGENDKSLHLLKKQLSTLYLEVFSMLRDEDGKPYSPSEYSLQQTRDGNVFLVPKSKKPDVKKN
Briefly: co-IP; supernatant of fresh human NSCLC tissue lysate incubated with anti-Nrf2, anti-PRDX5 or control IgG and Protein G Sepharose; Western blot; reciprocal. A general note: Immunoblotting shows a protein as a band on a membrane.

The target in experiment [2] is T1, Nuclear factor-related factor 2 (Nrf2) (human (endogenous in NSCLC tissue, adjacent normal lung tissue, A549 and NCI-H1299)). Briefly: co-IP; lysates of A549 and NCI-H1299 cells, treated with 100 uM H2O2 for 30 min or untreated, immunoprecipitated with anti-Nrf2, anti-PRDX5 or control IgG and Protein G Sepharose; Western blot.
The target of experiment [3] is T2, Peroxiredoxin 5 (PRDX5) (human (endogenous in NSCLC tissue, adjacent normal lung tissue, A549 and NCI-H1299)) (UniProt P30044).
T2 sequence: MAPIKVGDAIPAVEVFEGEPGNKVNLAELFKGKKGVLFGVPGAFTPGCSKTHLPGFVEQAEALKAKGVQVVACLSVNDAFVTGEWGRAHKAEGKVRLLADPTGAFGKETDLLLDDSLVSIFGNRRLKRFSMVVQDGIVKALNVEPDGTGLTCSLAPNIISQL
The experiment can be described thus: co-IP; supernatant of fresh human NSCLC tissue lysate incubated with anti-Nrf2, anti-PRDX5 or control IgG and Protein G Sepharose; Western blot; reciprocal.

Experiment [4] deals with T2, Peroxiredoxin 5 (PRDX5) (human (endogenous in NSCLC tissue, adjacent normal lung tissue, A549 and NCI-H1299)). Briefly: co-IP; supernatant of adjacent normal (non-tumorous) lung tissue lysate incubated with primary antibody or control IgG and Protein G Sepharose; Western blot.

No constants are given. Whether binding was seen depends on the method and setting. In cells and extracts the contact can be indirect. Some entries that bind do so weakly or less than the wild type.

B1: Peroxiredoxin 5 (PRDX5) (protein, UniProt P30044 53-214)
chain: T2 sequence
Take B1: the binding entry in experiment [1] and in experiment [2] was “binds” each time.

B2: Nuclear factor-related factor 2 (Nrf2) (protein, UniProt Q16236 1-605)
chain: T1 sequence
B2: the binding result in experiment [3] and in experiment [4] was “binds” each time.
